Results taken from US20250057890A1, “FUNCTIONAL FOOD CONTAINING BONITO-DERIVED EXTRACT FOR PREVENTING OR AMELIORATING NEUROPSYCHIATRIC DISORDERS” (MARUHACHI MURAMATSU, INC., priority 2022, published 2025).
For at least one compound, name, drawing or mass did not settle the structure.

Tested on: MG6 cells from mouse brain microglia
Experiment: Anti-inflammatory action: TNF-α production in LPS-activated MG6 cells (ELISA)
Format: cell-based
Protocol: MG6 cells from mouse brain microglia were purchased from the RIKEN BioResource Research Center (BRC), and the anti-inflammatory action of various extracts, including from katsuobushi, were assayed (see FIG. 1). First, a 96-well plate was seeded with the MG6 cells (5×10^3 cells/well·90 μL), and a culture was started in a CO2 incubator (37° C., CO2 level 5%). Next the various extracts were added to the wells after 0.5 hours, followed by the addition of lipopolysaccharide (LPS) 1 hour after that to activate the MG6 cells and induce an inflammatory state. After 6 hours, 10 μL of culture supernatant was collected from each well, after which 10 μL of a viable cell counting reagent (WST-8) was added to each well, and absorbance at 450 nm (reference wavelength 630 nm) was measured with a plate reader after 1 hour and 2 hours.
The previously collected culture supernatant was diluted 25-fold with a buffer, and the levels of TNF-α, a type of inflammatory cytokine, produced in the culture supernatant was measured via ELISA (using ELISA MAX™ Deluxe Set Mouth TNF-α, a kit manufactured by BioLegend). In the LPS addition test section, anti-inflammatory action was determined to be higher when the TNF-α production levels were more reduced through the prior addition of the various extracts, and lower the less said levels were reduced.

CN1CC(=O)NC1=N [creatinine]
anti-inflammatory activity (MG6 cells, LPS, fractions or single components): showed anti-inflammatory activity | anti-inflammatory action compared to katsuobushi extract (known components of katsuobushi, each in isolation): none of these substances in isolation showed anti-inflammatory action comparable to katsuobushi extract
